Test results as given in the supplement of paper PMC10849652.
Some of the results follow.

Protein sequences, listed by entry. Tags and fused reporters are not part of them. Lines headed by an entry give the natural chain unless they say otherwise; changes in a name come on top.
UniProt P33991: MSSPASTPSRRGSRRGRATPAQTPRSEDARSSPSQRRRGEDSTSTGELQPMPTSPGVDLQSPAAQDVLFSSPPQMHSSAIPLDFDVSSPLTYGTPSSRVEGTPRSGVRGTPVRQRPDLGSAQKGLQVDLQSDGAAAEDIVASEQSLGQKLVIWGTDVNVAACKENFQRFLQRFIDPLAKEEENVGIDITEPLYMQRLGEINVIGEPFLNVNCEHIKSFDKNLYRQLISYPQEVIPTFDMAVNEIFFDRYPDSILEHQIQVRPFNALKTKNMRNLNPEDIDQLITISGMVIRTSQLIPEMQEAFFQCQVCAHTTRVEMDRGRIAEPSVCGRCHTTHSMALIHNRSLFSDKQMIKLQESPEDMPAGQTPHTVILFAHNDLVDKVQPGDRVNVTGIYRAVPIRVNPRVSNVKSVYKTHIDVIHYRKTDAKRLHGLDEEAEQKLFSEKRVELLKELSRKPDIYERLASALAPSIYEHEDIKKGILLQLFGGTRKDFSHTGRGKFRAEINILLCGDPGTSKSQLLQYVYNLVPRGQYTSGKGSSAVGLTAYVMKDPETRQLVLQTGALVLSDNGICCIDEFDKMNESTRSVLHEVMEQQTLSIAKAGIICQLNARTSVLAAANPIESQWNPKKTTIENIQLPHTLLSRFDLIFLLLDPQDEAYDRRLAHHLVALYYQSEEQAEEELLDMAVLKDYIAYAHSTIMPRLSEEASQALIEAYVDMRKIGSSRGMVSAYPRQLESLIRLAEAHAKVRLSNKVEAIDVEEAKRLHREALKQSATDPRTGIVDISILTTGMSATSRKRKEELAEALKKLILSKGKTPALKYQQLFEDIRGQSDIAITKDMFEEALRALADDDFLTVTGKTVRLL
UniProt Q96N66: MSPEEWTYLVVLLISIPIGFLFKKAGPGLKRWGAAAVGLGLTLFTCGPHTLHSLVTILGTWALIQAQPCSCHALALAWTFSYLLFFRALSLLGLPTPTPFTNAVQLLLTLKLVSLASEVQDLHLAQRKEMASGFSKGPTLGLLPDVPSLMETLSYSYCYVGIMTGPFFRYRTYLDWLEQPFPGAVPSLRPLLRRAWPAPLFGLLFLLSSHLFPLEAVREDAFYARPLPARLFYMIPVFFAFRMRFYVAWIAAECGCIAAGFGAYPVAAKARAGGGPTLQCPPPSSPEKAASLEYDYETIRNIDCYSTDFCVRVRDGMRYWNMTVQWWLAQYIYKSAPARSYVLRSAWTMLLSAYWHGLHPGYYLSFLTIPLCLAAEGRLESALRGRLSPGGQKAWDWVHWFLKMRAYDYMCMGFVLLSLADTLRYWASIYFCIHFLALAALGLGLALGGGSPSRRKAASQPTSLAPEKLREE
UniProt Q86U44, whole entry, looked up: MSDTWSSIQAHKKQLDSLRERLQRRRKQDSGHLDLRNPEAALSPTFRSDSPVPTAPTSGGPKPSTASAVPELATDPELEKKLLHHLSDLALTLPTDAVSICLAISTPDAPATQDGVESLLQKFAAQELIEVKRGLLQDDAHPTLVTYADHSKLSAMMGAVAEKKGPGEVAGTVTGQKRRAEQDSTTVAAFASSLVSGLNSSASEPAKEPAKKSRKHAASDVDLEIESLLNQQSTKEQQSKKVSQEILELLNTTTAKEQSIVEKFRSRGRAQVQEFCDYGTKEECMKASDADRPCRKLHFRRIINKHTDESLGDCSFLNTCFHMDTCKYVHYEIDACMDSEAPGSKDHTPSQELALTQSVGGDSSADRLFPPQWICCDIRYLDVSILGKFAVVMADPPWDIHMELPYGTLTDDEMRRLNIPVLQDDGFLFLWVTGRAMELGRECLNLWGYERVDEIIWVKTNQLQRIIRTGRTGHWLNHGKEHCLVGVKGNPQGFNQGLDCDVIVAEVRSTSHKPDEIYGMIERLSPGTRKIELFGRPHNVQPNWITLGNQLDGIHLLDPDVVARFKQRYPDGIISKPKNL
UniProt Q9NZL9, whole entry, looked up: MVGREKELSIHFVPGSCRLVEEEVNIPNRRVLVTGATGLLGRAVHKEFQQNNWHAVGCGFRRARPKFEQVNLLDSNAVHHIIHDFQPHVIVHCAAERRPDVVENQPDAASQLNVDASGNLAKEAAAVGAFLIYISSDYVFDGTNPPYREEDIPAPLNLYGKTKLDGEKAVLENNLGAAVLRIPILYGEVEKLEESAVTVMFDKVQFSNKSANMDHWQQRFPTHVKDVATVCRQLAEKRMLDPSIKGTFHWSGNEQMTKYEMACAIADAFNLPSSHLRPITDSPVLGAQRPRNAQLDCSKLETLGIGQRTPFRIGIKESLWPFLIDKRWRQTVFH
UniProt Q14728: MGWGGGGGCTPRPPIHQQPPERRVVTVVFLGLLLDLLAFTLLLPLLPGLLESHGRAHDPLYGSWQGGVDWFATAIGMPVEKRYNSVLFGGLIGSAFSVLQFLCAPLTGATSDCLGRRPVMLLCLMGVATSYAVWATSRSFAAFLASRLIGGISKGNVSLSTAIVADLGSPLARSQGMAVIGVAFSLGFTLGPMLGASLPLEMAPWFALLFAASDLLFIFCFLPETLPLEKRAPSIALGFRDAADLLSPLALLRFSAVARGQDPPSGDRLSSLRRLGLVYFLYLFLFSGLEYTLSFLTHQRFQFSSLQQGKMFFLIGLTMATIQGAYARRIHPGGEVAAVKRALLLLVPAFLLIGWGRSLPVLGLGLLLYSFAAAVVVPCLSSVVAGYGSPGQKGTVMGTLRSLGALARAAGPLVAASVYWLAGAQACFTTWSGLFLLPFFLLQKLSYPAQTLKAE
UniProt Q8WXB1: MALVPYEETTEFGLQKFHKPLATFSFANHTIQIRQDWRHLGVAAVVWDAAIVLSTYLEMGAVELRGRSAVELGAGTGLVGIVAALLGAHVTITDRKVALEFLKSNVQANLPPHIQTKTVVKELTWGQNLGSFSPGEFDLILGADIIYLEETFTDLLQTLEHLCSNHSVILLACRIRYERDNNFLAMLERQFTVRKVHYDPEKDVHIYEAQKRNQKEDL
UniProt Q96HR3: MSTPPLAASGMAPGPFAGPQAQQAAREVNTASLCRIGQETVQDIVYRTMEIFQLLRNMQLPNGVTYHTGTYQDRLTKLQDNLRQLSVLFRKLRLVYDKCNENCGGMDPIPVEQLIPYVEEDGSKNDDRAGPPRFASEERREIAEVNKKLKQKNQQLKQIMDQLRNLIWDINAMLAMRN
UniProt P31153, whole entry, looked up: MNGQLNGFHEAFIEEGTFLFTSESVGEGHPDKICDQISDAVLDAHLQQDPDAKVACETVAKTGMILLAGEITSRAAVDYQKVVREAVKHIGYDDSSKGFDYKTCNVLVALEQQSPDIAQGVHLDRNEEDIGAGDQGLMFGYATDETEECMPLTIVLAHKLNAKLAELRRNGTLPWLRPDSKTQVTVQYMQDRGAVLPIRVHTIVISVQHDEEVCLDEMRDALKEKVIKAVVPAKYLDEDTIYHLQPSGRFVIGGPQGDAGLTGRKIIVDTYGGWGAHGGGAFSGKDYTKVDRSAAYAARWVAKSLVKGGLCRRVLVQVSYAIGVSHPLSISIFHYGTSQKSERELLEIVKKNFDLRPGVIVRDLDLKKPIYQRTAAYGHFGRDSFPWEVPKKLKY
UniProt Q9BQP7: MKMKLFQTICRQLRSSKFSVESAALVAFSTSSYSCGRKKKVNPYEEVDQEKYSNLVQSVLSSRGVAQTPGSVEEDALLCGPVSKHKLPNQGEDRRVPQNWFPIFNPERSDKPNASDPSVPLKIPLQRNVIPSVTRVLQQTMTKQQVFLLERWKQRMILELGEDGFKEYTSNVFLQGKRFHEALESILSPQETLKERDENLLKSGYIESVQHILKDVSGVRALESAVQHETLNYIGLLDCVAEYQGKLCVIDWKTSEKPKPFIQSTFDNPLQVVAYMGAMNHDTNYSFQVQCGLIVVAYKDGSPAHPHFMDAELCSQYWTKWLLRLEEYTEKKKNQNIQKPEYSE
UniProt P51608, whole entry, looked up: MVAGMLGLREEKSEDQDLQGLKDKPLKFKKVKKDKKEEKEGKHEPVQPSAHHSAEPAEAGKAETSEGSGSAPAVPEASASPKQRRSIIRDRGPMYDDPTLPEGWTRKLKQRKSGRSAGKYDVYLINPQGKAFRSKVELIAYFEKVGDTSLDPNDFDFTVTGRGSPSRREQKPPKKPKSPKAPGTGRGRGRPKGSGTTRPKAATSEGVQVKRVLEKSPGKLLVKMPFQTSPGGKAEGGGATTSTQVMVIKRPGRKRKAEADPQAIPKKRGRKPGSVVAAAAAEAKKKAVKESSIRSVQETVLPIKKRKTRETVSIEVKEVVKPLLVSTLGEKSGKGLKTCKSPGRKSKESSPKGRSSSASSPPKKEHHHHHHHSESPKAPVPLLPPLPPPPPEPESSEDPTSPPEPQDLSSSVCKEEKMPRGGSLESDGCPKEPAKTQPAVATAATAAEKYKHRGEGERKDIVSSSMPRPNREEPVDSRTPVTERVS
UniProt Q99735: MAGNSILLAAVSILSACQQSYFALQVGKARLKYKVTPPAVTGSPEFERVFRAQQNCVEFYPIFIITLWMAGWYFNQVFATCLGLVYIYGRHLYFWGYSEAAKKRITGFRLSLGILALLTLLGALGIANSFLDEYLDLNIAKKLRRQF
UniProt Q14696: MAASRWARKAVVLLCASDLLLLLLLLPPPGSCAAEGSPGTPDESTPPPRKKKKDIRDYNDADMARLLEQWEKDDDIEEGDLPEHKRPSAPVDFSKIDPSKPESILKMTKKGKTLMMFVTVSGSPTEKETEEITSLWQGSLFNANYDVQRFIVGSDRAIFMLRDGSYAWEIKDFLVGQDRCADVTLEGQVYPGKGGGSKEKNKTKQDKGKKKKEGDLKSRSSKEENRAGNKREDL
UniProt Q6ZWT7: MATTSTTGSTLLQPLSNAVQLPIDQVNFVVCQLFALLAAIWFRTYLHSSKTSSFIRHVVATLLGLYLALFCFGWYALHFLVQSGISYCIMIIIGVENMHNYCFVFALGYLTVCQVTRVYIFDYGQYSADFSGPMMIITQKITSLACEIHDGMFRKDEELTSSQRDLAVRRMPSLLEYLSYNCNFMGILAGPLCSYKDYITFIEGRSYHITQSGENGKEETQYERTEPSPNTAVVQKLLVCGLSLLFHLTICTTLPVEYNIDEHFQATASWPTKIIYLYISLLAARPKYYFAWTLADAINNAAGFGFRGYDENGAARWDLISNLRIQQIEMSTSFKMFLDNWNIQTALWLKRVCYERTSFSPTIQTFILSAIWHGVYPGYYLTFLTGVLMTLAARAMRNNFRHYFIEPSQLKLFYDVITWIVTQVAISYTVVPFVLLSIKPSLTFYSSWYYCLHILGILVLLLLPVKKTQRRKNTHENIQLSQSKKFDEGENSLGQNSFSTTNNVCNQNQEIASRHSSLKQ
UniProt Q9ULK4: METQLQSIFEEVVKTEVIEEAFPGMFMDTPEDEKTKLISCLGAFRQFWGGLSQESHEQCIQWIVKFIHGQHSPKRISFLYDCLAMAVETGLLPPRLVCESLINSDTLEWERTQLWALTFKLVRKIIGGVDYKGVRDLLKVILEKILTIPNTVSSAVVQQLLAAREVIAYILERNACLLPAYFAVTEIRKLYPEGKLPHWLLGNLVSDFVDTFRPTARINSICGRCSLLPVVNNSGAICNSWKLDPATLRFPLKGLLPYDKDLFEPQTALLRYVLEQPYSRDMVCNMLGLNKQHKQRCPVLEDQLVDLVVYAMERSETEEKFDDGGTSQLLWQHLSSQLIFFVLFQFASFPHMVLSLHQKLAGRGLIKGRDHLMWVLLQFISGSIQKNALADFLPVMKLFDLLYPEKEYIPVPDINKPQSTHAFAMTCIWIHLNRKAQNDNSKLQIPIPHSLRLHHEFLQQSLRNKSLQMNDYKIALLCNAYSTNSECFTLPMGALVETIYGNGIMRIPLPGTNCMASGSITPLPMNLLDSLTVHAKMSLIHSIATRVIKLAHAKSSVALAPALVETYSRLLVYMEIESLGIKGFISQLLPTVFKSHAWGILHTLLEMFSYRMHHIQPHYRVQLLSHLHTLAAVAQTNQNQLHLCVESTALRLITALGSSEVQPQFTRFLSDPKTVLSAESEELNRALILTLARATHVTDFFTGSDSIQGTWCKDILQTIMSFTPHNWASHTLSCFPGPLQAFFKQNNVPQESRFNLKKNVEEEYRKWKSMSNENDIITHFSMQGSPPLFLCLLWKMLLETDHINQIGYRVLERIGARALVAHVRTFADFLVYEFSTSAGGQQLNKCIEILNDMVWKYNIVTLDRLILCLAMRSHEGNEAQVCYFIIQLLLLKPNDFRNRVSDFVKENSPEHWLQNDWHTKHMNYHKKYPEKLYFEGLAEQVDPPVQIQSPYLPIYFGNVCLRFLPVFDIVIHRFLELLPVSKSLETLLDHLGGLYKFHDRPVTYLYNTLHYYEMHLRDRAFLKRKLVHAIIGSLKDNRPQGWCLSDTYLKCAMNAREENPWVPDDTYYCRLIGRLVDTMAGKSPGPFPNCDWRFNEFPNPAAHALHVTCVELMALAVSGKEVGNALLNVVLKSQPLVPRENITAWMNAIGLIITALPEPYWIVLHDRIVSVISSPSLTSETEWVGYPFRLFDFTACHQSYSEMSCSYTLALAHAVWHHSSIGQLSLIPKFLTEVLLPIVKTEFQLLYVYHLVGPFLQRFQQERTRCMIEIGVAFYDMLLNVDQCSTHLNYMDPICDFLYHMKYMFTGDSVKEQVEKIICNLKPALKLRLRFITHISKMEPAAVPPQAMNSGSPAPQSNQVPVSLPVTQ

Experiments:
Test in all cases: log2 fold change, soluble protein after heating vs DMSO (PISA); higher = thermal stabilisation; K562 cells, 10 uM, 30 min; active = over 0.2 and 3.5 SD of the protein, either way, in both replicates (recomputed)
[1] = compound: CN1CCN(CCOc2cc(OC3CCOCC3)c3c(Nc4c(Cl)ccc5c4OCO5)ncnc3c2)CC1 [saracatinib]
Method in brief: (§1)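 Thermal stability values are relative to control samples and come from duplicates. They are expressed as log2 fold changes. For measurement, K562 cells (2×10^6 cells/mL) received 10 μM compound for 30 min, and aliquots were heated for 3 min over 48°C-58°C, pooled, and extracted at 4°C in PBS with 0.5% NP-40. Soluble protein, the supernatant after 21,000xg for 90 min, was quantified by TMTpro 16plex LC-MS/MS with equalised channel sums.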

[2] = compound: CN1CCN(c2nc(C3=C(c4c[nH]c5ccccc45)C(=O)NC3=O)c3ccccc3n2)CC1 [sotrastaurin]
Method in brief: as §1

[3] = compound: CN1CC[C@H](c2c(O)cc(O)c3c(=O)cc(-c4ccccc4Cl)oc23)[C@H](O)C1 [alvocidib]
Method in brief: as §1

[4] = compound: CN1CCc2c(c3ccccc3n2Cc2ccc(C(=O)NO)cc2)C1 [Tubastatin A]
Method in brief: as §1

[5] = compound: CNC(=O)C1=CC=CC=C1NC2=NC(=NC=C2Cl)NC3=C(C=C(C=C3)N4CCOCC4)OC
Method in brief: as §1

[6] = compound: CNC(=O)c1ccc(Nc2ncc(C(F)(F)F)c(NCc3nccnc3N(C)S(C)(=O)=O)n2)cc1 [defactinib]
Method in brief: as §1

[7] = compound: CNCc1ccc(-c2[nH]c3cc(F)cc4c3c2CCNC4=O)cc1 [rucaparib]
Method in brief: as §1

[8] = compound: CNc1nc(-c2ccc3c(N)n[nH]c3c2)cc(N2C[C@@H](C(=O)NC3CCCCC3)CC[C@H]2C)n1
Method in brief: as §1

[9] = compound: COC(=O)N[C@@H](C)CNc1nccc(-c2cn(C(C)C)nc2-c2cc(Cl)cc(NS(C)(=O)=O)c2F)n1 [encorafenib]
Method in brief: as §1

[10] = compound: COC(=O)[C@H](CCSC)NC(=O)C1=C(C=C(C=C1)NC[C@H](CS)N)C2=CC=CC=C2
Method in brief: as §1

[11] = compound: COC1=CC=C(C=C1)CN2C=CC3=C2C=C(C=C3)C(=O)NO
Method in brief: as §1

[12] = compound: CON(C)C(=O)N1N=C(c2cc(F)ccc2F)S[C@@]1(CCCN)c1ccccc1 [filanesib]
Method in brief: as §1

[13] = compound: CO[C@H]1C[C@@H]2CC[C@@H](C)[C@@](O)(O2)C(=O)C(=O)N2CCCC[C@H]2C(=O)O[C@H]([C@H](C)C[C@@H]2CC[C@H](n3cnnn3)[C@H](OC)C2)CC(=O)[C@H](C)/C=C(\C)[C@@H](O)[C@@H](OC)C(=O)[C@H](C)C[C@H](C)/C=C/C=C/C=C/1C [zotarolimus]
Method in brief: as §1

[14] = compound: COc1cc(C(=O)O)ccc1NC(=O)[C@@H]1N[C@@H](CC(C)(C)C)[C@](C#N)(c2ccc(Cl)cc2F)[C@H]1c1cccc(Cl)c1F [idasanutlin]
Method in brief: as §1

[15] = compound: COc1cc(Nc2ncc3c(n2)-c2ccc(Cl)cc2C(c2c(F)cccc2OC)=NC3)ccc1C(=O)O [alisertib]
Method in brief: as §1

[16] = compound: COc1cc2nc(-c3cc(F)ccc3O)nc(N[C@@H]3CNC[C@H]3C(C)(C)O)c2cc1OC
Method in brief: as §1

[17] = compound: COc1cc2ncnc(Nc3ccc(F)c(Cl)c3)c2cc1OCCCN1CCOCC1 [gefitinib]
Method in brief: as §1

[18] = compound: COc1cccc2cc(-c3nc([C@H]4CC[C@H](C(=O)O)CC4)n4ncnc(N)c34)[nH]c12
Method in brief: as §1

[19] = compound: CS(=O)(=O)CCNCc1ccc(-c2ccc3ncnc(Nc4ccc(OCc5cccc(F)c5)c(Cl)c4)c3c2)o1 [lapatinib]
Method in brief: as §1

[20] = compound: CS(=O)(=O)N1CCN(Cc2cc3nc(-c4cccc5[nH]ncc45)nc(N4CCOCC4)c3s2)CC1 [pictilisib]
Method in brief: as §1

Measured: log2 fold change

MCM4 (UniProt P33991)
inactive: [1] 0.006 | [2] -0.039 | [3] -0.153 | [4] 0.006 | [5] 0 | [6] -0.093 | [7] -0.038 | [8] -0.026 | [9] -0.001 | [10] -0.014 | [11] 0.022 | [12] -0.091 | [13] 0.016 | [14] -0.048 | [15] -0.032 | [16] 0.017 | [17] 0.013 | [18] 0.021 | [19] 0.02 | [20] -0.016

MBOAT7 (UniProt Q96N66)
inactive: [1] 0.069 | [2] -0.014 | [3] -0.021 | [4] -0.049 | [5] -0.008 | [6] 0.01 | [7] -0.021 | [8] -0.004 | [9] -0.015 | [10] -0.027 | [11] -0.001 | [12] -0.021 | [13] -0.013 | [14] -0.047 | [15] -0.071 | [16] 0.004 | [17] -0.007 | [18] 0.059 | [19] -0.02 | [20] -0.082

METTL3 (UniProt Q86U44)
inactive: [1] 0.025 | [2] 0.02 | [3] -0.02 | [4] -0.001 | [5] -0.009 | [6] -0.053 | [7] -0.033 | [8] 0.017 | [9] -0.022 | [10] -0.029 | [11] -0.046 | [12] -0.038 | [13] 0.018 | [14] -0.078 | [15] -0.069 | [16] 0.013 | [17] -0.001 | [18] 0.022 | [19] -0.012 | [20] 0.024

MAT2B (UniProt Q9NZL9)
inactive: [1] 0.059 | [2] 0.05 | [3] 0.015 | [4] -0.003 | [5] -0.024 | [6] -0.021 | [7] -0.032 | [8] -0.032 | [9] -0.009 | [10] -0.008 | [11] -0.01 | [12] -0.013 | [13] -0.039 | [14] -0.051 | [15] -0.04 | [16] 0.044 | [17] -0.003 | [18] 0.074 | [19] -0.073 | [20] 0.013

MFSD10 (UniProt Q14728)
inactive: [1] 0.072 | [2] 0.002 | [3] 0.036 | [4] -0.053 | [5] 0.074 | [6] 0.005 | [7] -0.049 | [8] 0.027 | [9] 0.01 | [10] -0.082 | [11] -0.114 | [12] 0.042 | [13] -0.051 | [14] 0.057 | [15] 0.028 | [16] 0 | [17] 0.068 | [18] 0.029 | [19] 0.104 | [20] 0.162

MCM6 (UniProt Q14566)
inactive: [1] 0 | [2] 0.026 | [3] -0.125 | [4] -0.017 | [5] -0.019 | [6] -0.1 | [7] -0.029 | [8] -0.028 | [9] 0.01 | [10] 0.008 | [11] -0.008 | [12] -0.063 | [13] 0.01 | [14] -0.032 | [15] -0.025 | [16] -0.022 | [17] -0.003 | [18] 0.032 | [19] 0.007 | [20] -0.014

METTL21A (UniProt Q8WXB1)
inactive: [1] 0.03 | [2] 0.03 | [3] -0.067 | [4] 0.03 | [5] -0.106 | [6] -0.094 | [7] -0.057 | [8] 0.043 | [9] -0.02 | [10] -0.003 | [11] -0.061 | [12] 0.011 | [13] 0.03 | [14] -0.117 | [15] -0.018 | [16] -0.124 | [17] 0.017 | [18] 0.08 | [19] 0.078 | [20] 0.034

MED30 (UniProt Q96HR3)
inactive: [1] -0.016 | [2] 0.06 | [3] -0.024 | [4] -0.037 | [5] 0.021 | [6] -0.015 | [7] -0.008 | [8] -0.085 | [9] 0.041 | [10] 0.029 | [11] -0.054 | [12] 0.109 | [13] 0.067 | [14] -0.016 | [15] -0.038 | [16] -0.051 | [17] 0 | [18] 0.159 | [19] 0.091

2 successive entries out of the list so far, quoted:
MAT2B (UniProt Q9NZL9)
inactive: [1] 0.059 | [2] 0.05 | [3] 0.015 | [4] -0.003 | [5] -0.024 | [6] -0.021 | [7] -0.032 | [8] -0.032 | [9] -0.009 | [10] -0.008 | [11] -0.01 | [12] -0.013 | [13] -0.039 | [14] -0.051 | [15] -0.04 | [16] 0.044 | [17] -0.003 | [18] 0.074 | [19] -0.073 | [20] 0.013

MFSD10 (UniProt Q14728)
inactive: [1] 0.072 | [2] 0.002 | [3] 0.036 | [4] -0.053 | [5] 0.074 | [6] 0.005 | [7] -0.049 | [8] 0.027 | [9] 0.01 | [10] -0.082 | [11] -0.114 | [12] 0.042 | [13] -0.051 | [14] 0.057 | [15] 0.028 | [16] 0 | [17] 0.068 | [18] 0.029 | [19] 0.104 | [20] 0.162

More entries:

MAT2A (UniProt P31153)
inactive: [1] 0.068 | [2] 0.047 | [3] 0.046 | [4] -0.02 | [5] -0.039 | [6] 0.013 | [7] -0.003 | [8] -0.026 | [9] -0.032 | [10] 0.048 | [11] -0.024 | [12] -0.028 | [13] -0.034 | [14] 0.02 | [15] -0.057 | [16] 0.043 | [17] 0.023 | [18] 0.027 | [19] -0.037 | [20] -0.057

MGME1 (UniProt Q9BQP7)
inactive: [1] 0.031 | [2] 0.014 | [3] -0.019 | [4] -0.027 | [5] -0.032 | [6] -0.014 | [7] -0.029 | [8] -0.017 | [9] -0.026 | [10] 0 | [11] 0.043 | [12] -0.043 | [13] -0.007 | [14] -0.056 | [15] 0.047 | [16] -0.073 | [17] 0.002 | [18] 0.081 | [19] 0.035 | [20] 0.014

MECP2 isoform 2 (UniProt P51608)
inactive: [1] 0.026 | [2] 0.026 | [3] 0.286 | [4] 0.061 | [5] 0.123 | [6] 0.319 | [7] 0.182 | [8] 0.088 | [9] 0.118 | [10] -0.001 | [11] -0.1 | [12] 0.257 | [13] 0.027 | [14] 0.171 | [15] -0.134 | [16] -0.04 | [17] 0.057 | [18] -0.188 | [19] 0.092 | [20] -0.032

MGST2 (UniProt Q99735)
inactive: [1] -0.123 | [2] 0.095 | [3] -0.013 | [4] 0.039 | [5] 0.027 | [6] 0.044 | [7] -0.047 | [8] 0.069 | [9] -0.083 | [10] 0.091 | [11] -0.009 | [12] 0.124 | [13] 0.082 | [14] -0.008 | [15] -0.012 | [16] 0.015 | [17] 0.002 | [18] 0.027 | [19] -0.196 | [20] -0.028

MESD (UniProt Q14696)
inactive: [1] 0.024 | [2] 0.021 | [3] 0.042 | [4] -0.032 | [5] -0.018 | [6] 0.013 | [7] -0.012 | [8] -0.033 | [9] -0.005 | [10] 0.016 | [11] -0.047 | [12] 0.005 | [13] -0.025 | [14] -0.008 | [15] -0.018 | [16] 0.024 | [17] 0.024 | [18] 0.016 | [19] -0.014 | [20] -0.016

MBOAT2 (UniProt Q6ZWT7)
inactive: [1] 0.093 | [2] 0 | [3] -0.038 | [4] 0.002 | [5] 0.002 | [6] -0.035 | [7] -0.062 | [8] -0.033 | [9] 0.063 | [10] 0.015 | [11] -0.012 | [12] -0.032 | [13] -0.003 | [14] -0.077 | [15] -0.054 | [16] -0.004 | [17] 0 | [18] 0.064 | [19] 0.031 | [20] -0.018

MED23 (UniProt Q9ULK4)
inactive: [1] 0.012 | [2] -0.098 | [3] -0.138 | [4] -0.019 | [5] 0.009 | [6] -0.013 | [7] -0.006 | [8] -0.058 | [9] 0.114 | [10] -0.048 | [11] -0.019 | [12] 0.003 | [13] -0.058 | [14] -0.007 | [15] -0.121 | [16] -0.065 | [17] 0.103 | [18] -0.013 | [19] 0.141 | [20] 0.002
